Laboratory results taken from US20210290580A1, “New use of carbamate ß phenylethanolamine analogues for enhancing intracellular clearance of LDL cholesterol and for combining therapy with statins to enhance the efficacy and reduce adverse effects” (priority 2018, published 2021).

Experiments:
[1] = test system: Mouse liver AML12 cells; assay: Up-taking of fluorescence labeled LDL by liver cells; format: cell-based; conditions: 10 μM and 20 μM, 24 hours, compared between groups
Method: Cells were incubated with florescence labeled LDL to study the up-taking and metabolite of LDL cholesterol by the cells. LDL specific antibody were used to study LDL receptors expressed by the cells. […] After 24 hours of treatments, the cells were washed and fixed with paraformaldehyde. Cells were then incubated with anti-LDLR primary antibody with 1:200 dilution at room temperature for 4 hours. After washed, the second antibody Alexa Fluor 488 with 1:200 dilutions was added and incubated at room temperature for 2 hours. The cells were washed again before examined under fluorescent microscope. The fluorescence anti-body bound LDL receptors in green and either bound or internalized fluoresces labeled LDL in red were examined separately or after merging. Fluorescent microscope equipped with a digital camera (Axio Observer 7). Computer software was used to quantify the intensity of fluorescence, which is correlated with the amount of LDL and LDL receptors bounded to antibodies.

[2] = test system: hyperlipidemia rabbits; conditions: rabbit, in vivo
[3] = test system: Pulmonary artery smooth muscle cell (PASMC)

CC(C)c1c(C(=O)Nc2ccccc2)c(-c2ccccc2)c(-c2ccc(F)cc2)n1CC[C@@H](O)C[C@@H](O)CC(=O)O [Statin, Atorvastatin]
Bound and intracellular fluorescence labeled LDL [1]: more than LDL alone group but less than R-bambuterol treated groups
Toxicity effects by pathological examining [2]: significant
Toxicity to the viability of PASMC, in words [3]: dose-dependent inhibition of cell viability
